According to PubChem BioAssay AID328 (DTP/NCI, 2004):
The list does not hold the whole screen: it gathers tests that were run many times, whatever their T/C, doses with no T/C, and many T/C values between a quarter and a half above the control. Further doses and runs are listed elsewhere. T/C gives the treated animals as a percentage of the vehicle group. Some doses have a count of surviving animals in place of a T/C: the source holds a T/C of zero for them, seemingly a mark for toxic or unscored doses. Some survivor counts are full or nearly so, which does not show that the dose was tolerated: the source hardly ever lists a survival T/C far under the control, and the zero likely stands for such cases as well. Counts of survivors are from the toxicity check (mostly the fifth day) where no day follows; animals may have died later. Schedules are NCI's codes, read here as Q, the interval in days (D) or hours (H), X, the number of doses. Some entries hold several experiments; their values stand side by side, smallest first. For survival time, the PubChem record calls one and a half times the control and up active, and a quarter to a half above the control has no call in these data; cut-offs in other NCI protocols can differ. Some T/C values carry the count of animals alive at the toxicity check (mostly the fifth day); where none is given, no animal had died by that day. Signs of the kind (2×) give the number of equal values in this list.

Tested on: BDF1 mice, P388 leukemia ip, median survival T/C
Assay: NCI In Vivo Anticancer Drug Screen. Data for tumor model P388 Leukemia (intraperitoneal) in B6D2F1 (BDF1) mice
Conditions: T/C endpoint: median survival time, higher T/C = longer survival
How it was run: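 Mice carrying the transplantable tumour receive compound or vehicle. Survival is followed in each arm, and the treated measure is divided by the vehicle measure.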

[1] = dose: 250.0 mg/kg/injection, schedule: Q01DX001 (ip), vehicle: Klucel (hydroxypropylcellulose) (HPC)

CCCCCCCCCCCCCCCC(=O)OCC1OC(n2ccc(N)nc2=O)C(O)C1O (stereo not drawn)
survivor count (dose: 50.0 mg/kg/injection, schedule: Q01DX005 (ip), vehicle: Klucel (hydroxypropylcellulose) (HPC)): 5 of 6 and 6 of 6 | T/C (dose: 50.0 mg/kg/injection, schedule: Q01DX009 (ip), vehicle: Klucel (hydroxypropylcellulose) (HPC), evaluated on day 30): 86, 90, 91, 93, 94, 98, 100, 103, 105, 106 (2×), 110, 111, 119 (3×), 121, 122, 125 (2×), 127 [2 of 3 alive], 133, 139, 242, 262 [5 of 6 alive], 263, 273, 274, 275 % of control | T/C (dose: 50.0 mg/kg/injection, schedule: Q01DX009 (ip), vehicle: Klucel (hydroxypropylcellulose) (HPC), evaluated on day 35): 321 % of control | survivor count (dose: 50.0 mg/kg/injection, schedule: Q01DX009 (ip), vehicle: Klucel (hydroxypropylcellulose) (HPC)): 3 of 3 and 6 of 6 | survivor count (dose: 60.0 mg/kg/injection, schedule: Q01DX009 (ip), vehicle: saline with Tween-80): 6 of 6 | T/C (dose: 60.0 mg/kg/injection, schedule: Q04DX003 (ip), vehicle: saline with Tween-80, evaluated on day 5): 207, 225, 369 % of control | T/C (dose: 60.0 mg/kg/injection, schedule: Q04DX003 (ip), vehicle: saline with Tween-80, evaluated on day 60): 225 and 369 % of control | T/C (dose: 62.5 mg/kg/injection, schedule: Q01DX001 (ip), vehicle: Klucel (hydroxypropylcellulose) (HPC)): 100, 105, 138, 139, 179 [2 of 3 alive], 184, 185, 189, 192, 196, 214, 216, 225, 227, 232, 237 (2×), 241, 245 (2×), 247, 250, 254, 264, 266, 267, 272, 277, 283, 287 % of control | survivor count (dose: 75.0 mg/kg/injection, schedule: Q01DX009 (ip), vehicle: saline with Tween-80): 6 of 6 | T/C (dose: 75.0 mg/kg/injection, schedule: Q04DX002 (ip), vehicle: Klucel (hydroxypropylcellulose) (HPC), evaluated on day 30): 126, 196, 205, 206, 217, 236, 237, 241, 245, 245 [2 of 3 alive], 247, 250 (2×), 255, 258 (2×), 260 (2×), 262, 265 (2×), 270 (3×), 272, 276, 280, 288 % of control | T/C (dose: 75.0 mg/kg/injection, schedule: Q04DX002 (ip), vehicle: Klucel (hydroxypropylcellulose) (HPC), evaluated on day 35): 264 % of control | survivor count (dose: 75.0 mg/kg/injection, schedule: Q04DX002 (ip), vehicle: Klucel (hydroxypropylcellulose) (HPC)): 3 of 3 | T/C (dose: 75.0 mg/kg/injection, schedule: Q04DX003 (ip), vehicle: Klucel (hydroxypropylcellulose) (HPC), evaluated on day 30): 187, 195, 223, 225, 241, 245 (2×), 247, 250, 252, 254, 256 (2×), 260 (2×), 262, 265, 267 (2×), 270 (2×), 271, 272 (3×), 277 (2×), 283, 287, 291, 299 % of control | T/C (dose: 75.0 mg/kg/injection, schedule: Q04DX003 (ip), vehicle: Klucel (hydroxypropylcellulose) (HPC), evaluated on day 35): 353 % of control | T/C (dose: 100.0 mg/kg/injection, schedule: Q01DX001 (ip), vehicle: saline with Tween-80, evaluated on day 5): 198, 213, 322, 368 % of control | T/C (dose: 100.0 mg/kg/injection, schedule: Q01DX001 (ip), vehicle: saline with Tween-80, evaluated on day 60): 185, 192, 198, 206, 213, 289, 322, 368, 535 % of control | survivor count (dose: 120.0 mg/kg/injection, schedule: Q01DX009 (ip), vehicle: saline with Tween-80): 6 of 6 | T/C (dose: 125.0 mg/kg/injection, schedule: Q01DX001 (ip), vehicle: Klucel (hydroxypropylcellulose) (HPC)): 105, 111, 138, 157, 159, 163, 171, 234, 247 (2×), 250, 251, 256, 258, 265 (2×), 267 (3×), 272, 277, 280, 283, 284, 288 (2×), 291, 294, 297 % of control (2×) | T/C (dose: 125.0 mg/kg/injection, schedule: Q04DX002 (ip), vehicle: Klucel (hydroxypropylcellulose) (HPC)): 129 % of control | T/C (dose: 150.0 mg/kg/injection, schedule: Q01DX001 (ip), vehicle: saline with Tween-80, evaluated on day 5): 203, 207, 351, 578 % of control | T/C (dose: 150.0 mg/kg/injection, schedule: Q01DX001 (ip), vehicle: saline with Tween-80, evaluated on day 60): 187, 198, 203, 207, 242, 307, 351, 357, 578 % of control | T/C (dose: 150.0 mg/kg/injection, schedule: Q04DX002 (ip), vehicle: Klucel (hydroxypropylcellulose) (HPC), evaluated on day 30): 88, 90, 93, 94, 101, 112, 131, 138, 148, 162, 198, 228, 232, 238, 245, 247, 249, 250, 256, 258, 260, 277, 280 % of control | T/C (dose: 150.0 mg/kg/injection, schedule: Q04DX002 (ip), vehicle: Klucel (hydroxypropylcellulose) (HPC), evaluated on day 35): 196 % of control | survivor count (dose: 150.0 mg/kg/injection, schedule: Q04DX002 (ip), vehicle: Klucel (hydroxypropylcellulose) (HPC)): 2 of 3, 3 of 3, 6 of 6 | T/C (dose: 150.0 mg/kg/injection, schedule: Q04DX003 (ip), vehicle: Klucel (hydroxypropylcellulose) (HPC), evaluated on day 30): 86, 87, 90, 91, 92 (2×), 96, 97, 98, 99, 100, 101, 108 (2×), 110 (2×), 112, 117, 120, 130, 157, 163, 167, 188, 205, 250 (2×), 256, 297 % of control | T/C (dose: 150.0 mg/kg/injection, schedule: Q04DX003 (ip), vehicle: Klucel (hydroxypropylcellulose) (HPC), evaluated on day 35): 352 % of control | survivor count (dose: 150.0 mg/kg/injection, schedule: Q04DX003 (ip), vehicle: Klucel (hydroxypropylcellulose) (HPC)): 3 of 6 and 3 of 3 | T/C (dose: 225.0 mg/kg/injection, schedule: Q01DX001 (ip), vehicle: saline with Tween-80, evaluated on day 5): 205, 231, 581 % of control | T/C (dose: 225.0 mg/kg/injection, schedule: Q01DX001 (ip), vehicle: saline with Tween-80, evaluated on day 60): 205, 231, 581 % of control | T/C [1]: 86, 88, 98, 108, 111, 126, 165, 168, 181 (2×), 183, 194, 200 [5 of 6 alive], 206, 217, 237, 250, 261, 265, 266 (2×), 267 [2 of 3 alive], 272, 277, 279, 288 (2×), 294, 297 % of control | survivor count [1]: 3 of 3 | survivor count (dose: 250.0 mg/kg/injection, schedule: Q04DX002 (ip), vehicle: Klucel (hydroxypropylcellulose) (HPC)): 3 of 3 and 6 of 6 | survivor count (dose: 400.0 mg/kg/injection, schedule: Q04DX003 (ip), vehicle: saline with Tween-80): 6 of 6
